The record followed here is PMC10508264, “Exploring the antioxidant, antimicrobial, cytotoxic and biothermodynamic properties of novel morpholine derivative bioactive Mn(II), Co(II) and Ni(II) complexes – combined experimental and theoretical measurements towards DNA/BSA/SARS-CoV-2 3CL^Pro” (RSC Medicinal Chemistry, 2023).

Each structure is given as a SMILES string.

One series relates to A549. Nature of the series: MTT cell viability assay, A549. Type of series: cell-based, human. The settings on record: NHDF vs A549. In general terms: Tetrazolium assays rely on reduction of a dye to a coloured formazan, in cell work by metabolically active cells.
For a further series, the system named is EB–DNA. Description: EB–DNA competitive fluorescence emission titration. Type of series: binding. Particulars: for n, number of binding sites (SV method II), DNA: EB–DNA; for P, ratio of fluorescence quantum efficiency, DNA: intercept of F/F0 vs 1/[DNA]. Here is the method:
Titrations were performed for all tested compounds (1–200 μM) with pre-incubated EB-bound DNA and the intensity variations between 510 nm and 610 nm were carefully monitored in the presence and absence of DNA (200 μM) during the initial emission and excitation by EB.[31]
Fluorescence emission spectral titration is an efficient approach to evaluating the binding properties of DNA/BSA biomolecules. In general, the fluorescence of EB is quite weak in aqueous solution, but when it is bound to DNA, the fluorescence intensity rises. However, it is a well-known imperative intercalator and is more supportive in distinguishing the binding strength of non-fluorescence test substances. Also, the fluorescence emission spectra of the EB–DNA adduct were examined at 610 nm in the absence and presence of rising quantities of each test compound. When the complex concentration (0–240 μM) rises, the fluorescence intensity of the EB-bound DNA complex diminishes owing to the displacement of EB from CT-DNA. A notable reduction in the fluorescence emission intensity at 610 nm is observed (Fig. S26 ^† and Table 4). The photoelectron shift from DNA's guanine base to the excited states may be the cause of the frequency quenching in the emission of the test substance by DNA. […] Therefore, the competitive binding experiment can make use of EB as a fluorescent probe. […] This is further evidence that complexes (1–3) strongly bind intercalatively with DNA. The observed results agree well with the data from electronic absorption spectral measurements. Additionally, the experiment was extended to examine the binding properties between the test substance and BSA. BSA mostly contains three amino acid residues (tyrosine, tryptophan, and phenylalanine), which give it its inherent fluorescence. […] These two residues also have minimal quenching effects. Tryptophan in BSA fluoresces mostly because of a residue that is trapped inside a hydrophobic cavity. Therefore, it is crucial to model potential binding interactions with the metal complexes. […] The fluorescence intensity also reduces while the test substances (1–3) are steadily blended with the BSA solution, proving that complexes (1–3) interact with BSA via altering the protein's secondary structure, which also leads to an alteration in the tryptophan environment of BSA (Fig. S27 ^†). Furthermore, BSA structural similarities share 76% sequence identity with human serum albumin (HSA), the most prevalent protein in blood plasma that transports ions and proteins to cells and tissues. HSA is able to readily crystallize under the trivalent cations, but BSA has no ready crystallizing property. However, they consist of parallel physicochemical properties to each other.[74,75] Additionally, the Stern–Volmer eqn (12) and (13) were employed to analyze the data (Fig. S28 ^† and Table 4). Additionally, the kq values for DNA and BSA binding were acquired in the range of 1.1636–2.8863 × 10^12 and 2.6390–7.0774 × 10^12 mol^−1 s^−1, respectively. They are also much greater than the collision quenching constant value (2.0 × 10^10 mol^−1 s^−1). Therefore, it is assumed that the static quenching process was brought on by adduct construction between the test compounds and BSA rather than a dynamic collision. However, fluorescence spectroscopy is generally plagued by the inner filter effect (IFE), disturbing spectral analysis. The energizing ray is attenuated due to the highly concentrated solution sample. As a result, strong fluorescence is only seen on surfaces facing the excitation beam.

Another series relates to MCF-7. Description: MTT cell viability assay, MCF-7. Type of series: cell-based, human. The settings on record: NHDF vs MCF-7.
A further series concerns HepG2. Description: MTT cell viability assay, HepG2. The settings on record: NHDF vs HepG2. Type of series: cell-based, human.

With `[Mn+2].[O-]c1ccccc1N=Cc1ccc(N2CCOCC2)cc1.[O-]c1ccccc1N=Cc1ccc(N2CCOCC2)cc1.c1ccc(-c2ccccn2)nc1` [(1)], in the series on A549, the “SI (IC50 normal cells/IC50 cancer cells)” value is on record as 2.03. Also, in the series with EB–DNA, the Scatchard analysis n came to 0.983; the “n, number of binding sites (SV method II), DNA” value (“n, number of binding sites” for short) was 1.037; the “P, ratio of fluorescence quantum efficiency, DNA” value (from here on “P, ratio”) stood at 0.0902. The “SI (IC50 normal cells/IC50 cancer cells)” value in the series on MCF-7 is 2.09. Besides, the “SI (IC50 normal cells/IC50 cancer cells)” value in the series with HepG2 is given as 2.13.
Turning to `[Co+2].[O-]c1ccccc1N=Cc1ccc(N2CCOCC2)cc1.[O-]c1ccccc1N=Cc1ccc(N2CCOCC2)cc1.c1ccc(-c2ccccn2)nc1` [(2)], the “SI (IC50 normal cells/IC50 cancer cells)” value with A549 stood at 2.16; in the series on MCF-7, 2.06; with HepG2 it was 2.06. The Scatchard analysis n in the series with EB–DNA was 1.056. Further, the “n, number of binding sites” value with EB–DNA is 1.104. The “P, ratio” value in the series on EB–DNA was 0.1516.
As to `[Ni+2].[O-]c1ccccc1N=Cc1ccc(N2CCOCC2)cc1.[O-]c1ccccc1N=Cc1ccc(N2CCOCC2)cc1.c1ccc(-c2ccccn2)nc1` [(3)], the “SI (IC50 normal cells/IC50 cancer cells)” value with A549 was found to be 2.20. In the series with EB–DNA, the Scatchard analysis n was found to be 0.971; the “n, number of binding sites” value was determined as 1.024; the “P, ratio” value came out at 0.0950. Also, the “SI (IC50 normal cells/IC50 cancer cells)” value in the series on MCF-7 worked out at 2.13. The “SI (IC50 normal cells/IC50 cancer cells)” value in the series on HepG2 turned out to be 2.19.
Consider `Oc1ccccc1N=Cc1ccc(N2CCOCC2)cc1` [(HL), 2-(4-morpholinobenzylideneamino)phenol], for which the “SI (IC50 normal cells/IC50 cancer cells)” value with A549 is reported as 1.65; with MCF-7 it was 1.98; in the series with HepG2 it was 1.92. The same compound registered a Scatchard analysis n in the series with EB–DNA of 1.158. The “n, number of binding sites” value in the series on EB–DNA is 0.973. The “P, ratio” value in the series with EB–DNA is recorded as 0.0899.
